Measured values published in patent US20250101087A1.
These are yes or no findings as the source states them, for the method shown. Some entries that bind do so weakly or less than the wild type.

Sequences of proteins named here, by UniProt entry; tags and fusion partners are left off. Residues count along the entry.
UniProt P05067, residues 674-713: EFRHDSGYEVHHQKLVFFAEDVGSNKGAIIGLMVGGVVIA

Key:
[1] = target: amyloid plaques in human AD brain tissue (human) (UniProt P05067); assay: immunostaining of fresh frozen human AD frontal cortex
[2] = target: AβpE3 in amyloid plaques of APPPS1-21 mouse brain (human) (UniProt P05067); assay: anti-hIgG immunohistochemistry after in vivo dosing of APPPS1-21 mice

B1: Comparator Ab1 (antibody, human IgG1, kappa, V domains shown)
VH: QVQLVQSGAEVKKPGSSVKVSCKASGYDFTRYYINWVRQAPGQGLEWMGWINPGSGNTKYNEKFKGRVTITADESTSTAYMELSSLRSEDTAVYYCAREGITVYWGQGTTVTVSS
VL: DIVMTQTPLSLSVTPGQPASISCKSSQSLLYSRGKTYLNWLLQKPGQSPQLLIYAVSKLDSGVPDRFSGSGSGTDFTLKISRVEAEDVGVYYCVQGTHYPFTFGQGTKLEIKR
binding [1]: binds
binding [2]: binds
